Values from PubChem BioAssay AID1259308 (NCATS, 2017).
In all, the deposit lists about 59,000 reagents; this is a random part of them. In the full data, about 1,510 (2.6%) were called active. 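Calls use total luciferase alone and ignore viability, so some active siRNAs may act by altering cell number.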 Entries without a mark were called inactive. The numbers tell different reagents against one gene apart.

Aim: 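Candidate targets for better recombinant protein yield in mammalian cells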 (primary screen)
System: human HEK293 embryonic kidney cells stably expressing firefly luciferase (HEK-CMV-Luc2-Hygro)
Reagents: single siRNA against human genes, 0.8 pmol siRNA per well
Time to read-out: 72 h
Measured: 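Luciferase light (ONE-Glo) measured on one replicate plate set and viability (CellTiter-Glo) on the other, scaled to a negative control siRNA, with robust z-scores and luciferase per cell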
Direction: total luciferase, z-score and total luciferase, % of control: higher = more reporter protein produced; luciferase per cell, z-score: higher = more reporter output per viable cell; viable cells, % of control: higher = more viable cells
Call rule: 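Active when the median/MAD z-score for overall luciferase is greater than 3; a gene was taken forward for validation with new siRNAs if at least two of its three siRNAs passed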
Calls: active = raised luciferase; inactive = no rise

gene knocked down,reagent,"total luciferase, z-score","total luciferase, % of control","luciferase per cell, z-score","viable cells, % of control"
ULBP2,1,-0.4,73.9,-0.705,99.5
ULBP2,2,1.22,106,0.409,106
ULBP2,3,1.19,106,0.178,113
ELP2,1,0.407,90,0.0719,98.7
ELP2,2,-0.132,79.3,-0.248,94.5
ELP2,3,0.00421,82,-0.451,103
PKIB,1,0.232,86.5,0.0956,94.3
PKIB,2,-0.452,72.9,-0.676,97.3
PKIB,3,1.16,105,0.423,105
TENT5A,1,-0.371,74.5,-0.337,91
TENT5A,2,-1.8,46,-1.23,71
TENT5A,3,-0.764,66.7,-0.853,93.3
PYROXD1,1,1.81,118,0.994,101
PYROXD1,2,-0.322,75.5,-0.659,100
PYROXD1,3,1.37,109,1.23,88.2
RAP2C,1,1.72,116,0.376,118
RAP2C,2,0.383,89.5,0.111,97.1
RAP2C,3,-0.477,72.4,-0.408,90.1
MPL,1,0.741,96.6,1.28,77.1
MPL,2,-0.6,70,-0.962,101
MPL,3,1.36,109,1.56,80.7
BCHE,1,-0.405,73.8,-0.515,94.5
BCHE,2,1.23,106,0.377,108
BCHE,3,-0.452,72.9,-1.38,117
MMGT1,1,-0.61,69.7,-1.06,103
MMGT1,2,0.0168,82.2,-0.176,96.2
MMGT1,3,-0.975,62.5,-1.83,113
TSPAN15,1,0.185,85.6,0.252,89.5
TSPAN15,2,0.262,87.1,0.341,89
TSPAN15,3,1.91,120,1.35,93.8

Continued, starting with the last 4 of the part before.
gene knocked down,reagent,"total luciferase, z-score","total luciferase, % of control","luciferase per cell, z-score","viable cells, % of control"
MMGT1,3,-0.975,62.5,-1.83,113
TSPAN15,1,0.185,85.6,0.252,89.5
TSPAN15,2,0.262,87.1,0.341,89
TSPAN15,3,1.91,120,1.35,93.8
PCDHGA5,1,0.163,85.1,0.673,79.7
PCDHGA5,2,1.88,119,1.01,102
PCDHGA5,3,1.38,109,0.971,94.7
CSPG4,1,-0.461,72.7,-0.193,85.5
CSPG4,2,-0.642,69.1,-0.812,95.7
CSPG4,3,2.04,123,1.95,81.8
GCNT4,1,-0.134,79.2,-0.138,91.8
GCNT4,2,-0.271,76.5,-0.325,93.1
GCNT4,3,0.817,98.1,1.12,81.7
ZC3HAV1L,1,-0.106,79.8,-0.201,94
ZC3HAV1L,2,0.156,85,0.526,82.7
ZC3HAV1L,3,-0.635,69.3,-0.577,90.1
HOMEZ,1,-0.532,71.3,-0.786,98
HOMEZ,2,2.08,123,1.75,86.8
HOMEZ,3,1.03,102,1.21,83.2
UTP14A,1,-1.44,53.2,-1.15,80.5
UTP14A,2,-0.0684,80.5,0.983,69.5
UTP14A,3,-2.03,41.6,-3.03,103
SPEF1,1,0.0184,82.3,2.98,41.9
SPEF1,2,0.358,89,0.135,96
SPEF1,3,0.507,92,0.247,96.3
PXDN,1,1.02,102,0.569,98.3
PXDN,2,0.305,88,-0.292,106
PXDN,3,-1.02,61.6,-0.64,81.5
DUOXA2,1,0.0462,82.8,0.492,81.3
DUOXA2,2,-0.858,64.8,0.283,67.2
DUOXA2,3,0.345,88.7,0.541,86
